We go through one compound from PMC10779086, “3-O-Methyltolcapone and Its Lipophilic Analogues Are Potent Inhibitors of Transthyretin Amyloidogenesis with High Permeability and Low Toxicity” (International Journal of Molecular Sciences, 2023).

The subject of data set [1] is Caco-2 cells. Conditions: A→B, expected value in brackets; cited from earlier work.
Data set [2] can be described thus: Caco-2 intestinal permeability. Conditions: human. In kind it is in vitro ADME. How it is done:
Caco-2 cells (cod. HTB-37) were bought from ATCC (American Type Culture Collection, Rockville, MD, USA). Caco-2 cells were cultured for 21 days on a 24 trans-well plate to reach the right confluence and differentiate until the formation of the intestinal epithelium mimetic monolayer. The test substance permeability was measured in both directions (apical to basolateral [A→B] and basolateral to apical [B→A]) across the cell monolayer. The assay was carried out in HBSS transport medium at pH 7.4. Test substance at single concentration (10 μM) was tested in duplicate at one time point (60 min). Monolayer integrity of Caco-2 cells was evaluated by TEER measurements during the experiment and by Lucifer Yellow test after the incubation with the test compound. The concentrations of the test substance and/or reference controls were measured by LC-MS/MS.
The efflux ratio (Papp BA/Papp AB) was determined, providing an Indicator of the compound’s active efflux. A P-glycoprotein (P-gp) inhibitor, Elacridar (EL 2 µM), was included to identify the active transport mediated by apical efflux transporters. […] As control, the modulation of the efflux ratio of a reference known substrate (Digoxin) was evaluated with or without the respectively inhibitors in every experiment. […] In parallel, mass balance (%) of recovered test substance was also determined. […]

What is called Papp A→B is the apparent permeability from the apical to the basolateral side of a cell layer. Read a low Papp A→B as poor permeation.

For the compound `CC(C)NCC(O)COc1ccc(CC(N)=O)cc1` (stereo not drawn) [Atenolol, reference compound], in data set [1], the “Papp [Expected Values]” value was <10 [<10] nm/s. Moreover, the recovery at 60 min, 10 µM in data set [2] (Caco-2, pH 7.4, A→B) was 86 ± 1%. For the same compound, the Papp A→B at 60 min, 10 μM in data set [2] (Caco-2, A→B, 10 μM, 60 min, pH 7.4) was less than 1 ×10⁻⁶ cm/s.
